Source: publication PMC10234109 (2023)

The chains behind the UniProt entries cited, without tags or fusion partners. Where a name states a change or a piece, a line headed by the entry shows the natural chain unless it says otherwise.
UniProt Q64331: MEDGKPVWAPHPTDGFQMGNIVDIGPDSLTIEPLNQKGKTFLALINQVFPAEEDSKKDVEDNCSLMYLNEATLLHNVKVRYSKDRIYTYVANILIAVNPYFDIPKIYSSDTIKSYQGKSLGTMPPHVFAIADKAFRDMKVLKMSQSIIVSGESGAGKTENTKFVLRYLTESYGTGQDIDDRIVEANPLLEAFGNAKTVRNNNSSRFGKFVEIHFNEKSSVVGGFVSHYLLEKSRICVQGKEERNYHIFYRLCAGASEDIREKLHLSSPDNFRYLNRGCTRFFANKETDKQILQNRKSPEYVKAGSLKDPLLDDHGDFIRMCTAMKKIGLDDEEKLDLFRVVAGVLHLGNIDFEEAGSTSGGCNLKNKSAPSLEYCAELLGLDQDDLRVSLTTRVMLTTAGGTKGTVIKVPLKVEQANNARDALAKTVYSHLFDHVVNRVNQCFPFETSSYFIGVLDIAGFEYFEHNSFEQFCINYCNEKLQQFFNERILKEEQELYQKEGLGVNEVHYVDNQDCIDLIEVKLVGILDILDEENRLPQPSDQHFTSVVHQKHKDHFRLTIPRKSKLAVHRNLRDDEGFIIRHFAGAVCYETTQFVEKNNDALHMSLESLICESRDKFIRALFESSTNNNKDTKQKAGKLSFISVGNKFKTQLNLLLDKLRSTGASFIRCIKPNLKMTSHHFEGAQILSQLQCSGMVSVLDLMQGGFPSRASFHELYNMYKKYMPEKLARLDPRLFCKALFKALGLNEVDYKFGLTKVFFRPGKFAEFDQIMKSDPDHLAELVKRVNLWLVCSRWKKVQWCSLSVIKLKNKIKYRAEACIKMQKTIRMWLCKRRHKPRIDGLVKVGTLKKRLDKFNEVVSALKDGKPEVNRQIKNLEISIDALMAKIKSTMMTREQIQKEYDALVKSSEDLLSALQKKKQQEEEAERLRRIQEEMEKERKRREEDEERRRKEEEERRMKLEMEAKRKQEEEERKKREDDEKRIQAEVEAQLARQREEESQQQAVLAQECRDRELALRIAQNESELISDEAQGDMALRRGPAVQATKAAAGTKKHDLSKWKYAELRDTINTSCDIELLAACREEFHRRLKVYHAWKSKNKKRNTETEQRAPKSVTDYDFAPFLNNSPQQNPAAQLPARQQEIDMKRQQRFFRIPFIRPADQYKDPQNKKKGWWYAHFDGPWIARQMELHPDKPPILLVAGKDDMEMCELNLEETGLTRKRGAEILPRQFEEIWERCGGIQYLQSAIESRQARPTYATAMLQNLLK
UniProt P97479: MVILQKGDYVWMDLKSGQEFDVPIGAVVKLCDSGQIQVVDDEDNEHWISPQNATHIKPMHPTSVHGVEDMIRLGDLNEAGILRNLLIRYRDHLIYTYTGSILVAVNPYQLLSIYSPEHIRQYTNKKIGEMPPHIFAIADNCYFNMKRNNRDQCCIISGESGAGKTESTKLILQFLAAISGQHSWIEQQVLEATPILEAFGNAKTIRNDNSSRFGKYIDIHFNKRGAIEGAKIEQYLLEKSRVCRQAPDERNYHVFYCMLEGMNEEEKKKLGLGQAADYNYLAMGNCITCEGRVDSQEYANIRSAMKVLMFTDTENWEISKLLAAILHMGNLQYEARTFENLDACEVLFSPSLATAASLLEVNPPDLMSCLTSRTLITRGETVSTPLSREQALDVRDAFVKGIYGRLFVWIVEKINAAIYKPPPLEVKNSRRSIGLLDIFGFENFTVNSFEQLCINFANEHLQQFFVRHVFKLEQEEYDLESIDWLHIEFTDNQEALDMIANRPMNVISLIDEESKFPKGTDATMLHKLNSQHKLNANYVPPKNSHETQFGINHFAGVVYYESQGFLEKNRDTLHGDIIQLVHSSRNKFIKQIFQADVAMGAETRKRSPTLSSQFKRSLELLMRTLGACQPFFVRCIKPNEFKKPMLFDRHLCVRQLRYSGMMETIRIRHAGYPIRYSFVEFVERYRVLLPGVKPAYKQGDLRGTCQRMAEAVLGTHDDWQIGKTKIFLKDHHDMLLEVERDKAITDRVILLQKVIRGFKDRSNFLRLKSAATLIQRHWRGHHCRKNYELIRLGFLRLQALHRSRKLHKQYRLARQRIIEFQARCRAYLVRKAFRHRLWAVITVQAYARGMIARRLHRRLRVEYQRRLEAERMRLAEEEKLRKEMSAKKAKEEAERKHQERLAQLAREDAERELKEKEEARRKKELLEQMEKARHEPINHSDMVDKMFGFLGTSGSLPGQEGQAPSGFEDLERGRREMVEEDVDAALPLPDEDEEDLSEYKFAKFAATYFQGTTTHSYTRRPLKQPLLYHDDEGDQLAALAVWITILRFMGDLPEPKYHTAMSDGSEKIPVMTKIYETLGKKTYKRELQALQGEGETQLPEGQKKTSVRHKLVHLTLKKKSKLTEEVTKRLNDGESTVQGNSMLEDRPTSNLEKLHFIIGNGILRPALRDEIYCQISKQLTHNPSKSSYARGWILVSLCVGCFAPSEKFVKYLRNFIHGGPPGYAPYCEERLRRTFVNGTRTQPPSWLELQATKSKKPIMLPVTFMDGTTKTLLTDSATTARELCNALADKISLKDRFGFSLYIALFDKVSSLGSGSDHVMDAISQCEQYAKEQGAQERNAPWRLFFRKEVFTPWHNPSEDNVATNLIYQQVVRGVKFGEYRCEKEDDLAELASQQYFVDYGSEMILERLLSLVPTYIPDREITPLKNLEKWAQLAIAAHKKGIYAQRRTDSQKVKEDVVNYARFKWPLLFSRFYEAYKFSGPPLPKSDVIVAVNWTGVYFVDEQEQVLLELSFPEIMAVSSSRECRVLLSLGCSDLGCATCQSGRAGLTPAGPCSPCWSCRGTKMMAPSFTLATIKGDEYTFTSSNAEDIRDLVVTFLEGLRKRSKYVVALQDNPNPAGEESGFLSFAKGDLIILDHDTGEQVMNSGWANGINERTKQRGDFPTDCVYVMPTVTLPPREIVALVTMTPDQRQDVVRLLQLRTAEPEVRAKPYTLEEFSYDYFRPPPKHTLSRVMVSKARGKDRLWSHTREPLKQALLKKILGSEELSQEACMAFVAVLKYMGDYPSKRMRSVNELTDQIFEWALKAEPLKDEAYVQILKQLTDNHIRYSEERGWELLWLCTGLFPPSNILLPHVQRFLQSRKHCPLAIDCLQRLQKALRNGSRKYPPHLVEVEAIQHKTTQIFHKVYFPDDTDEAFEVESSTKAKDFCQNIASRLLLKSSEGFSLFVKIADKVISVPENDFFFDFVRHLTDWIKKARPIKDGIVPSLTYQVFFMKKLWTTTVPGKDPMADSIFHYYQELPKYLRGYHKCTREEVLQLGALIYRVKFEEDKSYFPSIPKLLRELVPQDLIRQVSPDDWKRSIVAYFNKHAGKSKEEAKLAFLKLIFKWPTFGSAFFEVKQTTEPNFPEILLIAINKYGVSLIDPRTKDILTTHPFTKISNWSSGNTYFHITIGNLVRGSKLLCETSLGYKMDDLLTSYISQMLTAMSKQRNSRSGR

Columns and labels:
Experiment in all cases: NanoSPD; HeLa cells transfected with MYO10^NANOTRAP, a GFP- (or mEMERALD-) tagged bait and an mCherry-tagged prey; co-transport of the prey to filopodial tips; fixed about 24 h after transfection
[1] = target: GFP–MYO6^TAIL-A (mouse)
[2] = target: GFP–MYO6^TAIL-B (mouse) (UniProt Q64331)
[3] = target: GFP–MYO6^TAIL-C (mouse)
[4] = target: GFP–MYO7A^TAIL (UniProt P97479)

Binder	binding [1]	binding [2]	binding [3]	binding [4]
mCherry–GIPC3 (protein, UniProt Q8R5M0 1-297) MDSAAPREPGATEPPARARPRLVFRTQLAHGSPTGRIEGFTNVRELYAKIAEAFGIAPTEILFCTLNSHKVDMQKLLGGQIGLEDFIFAHVRGETKEVEVTKTEDALGLTITDNGAGYAFIKRIKEGSIINRIEAVCVGDSIEAINDHSIVGCRHYEVAKMLRELPKSQPFTLRLVQPRRAFDMIGQRSRSSKCPVEAKVSSGRETLRLRSGGAATVEEAPSDVEAAAARRVDDLLESYMGIRDPELAAAVVETARSSAGAQAFARGLDAVLGEFAFPDEFVVEVWAAIGEAHDACG	binds	binds	binds	no binding
mCherry–PDZD7 (protein, UniProt E9Q9W7 1-1021) MARGFTVGFDPLGLGELSSGSLSSVSSRGHLGSDSGSTATRYLLRKQQRLLNGPSRGIRASSPMGRVILINSPIEANSDESDIIHAVRVEKSPSGRLGFSVRGGSEHGLGIFVSKVEEGSSAERAGLCVGDKITEVNGLSLESTTMGSAVRLLTSSSCLHMMVRRMGRVPGIKFSKEKTTWVDVVNRRLVVEKCSSTPSDRSSEDGVRRIVHLYTTSDDFCLGFNIRGGKEFGLGIYVSKVDHGGLAEENGIKVGDQVLAANGVRFDDISHSQAVEVLKGQTHIMLTIKETGRYPAYKEMVSEYCWLDRLSNGVLQQLSPASESSSSVSSYASSAPCSSGSLPSDRMDVCLGPEEPTSHGPGWGRADTAMQTEPDLDSRVETWCSVRPTVILRDTAIRSDGPSSTRHLDSALSESPKTALLLALSRPRTPITRSQSHLTLWEEKKQRKKEKSGSSGEKGALQRSKTLMNLFFKGGRQGRPAGDGHREAWTLDSRSPTKVRPRLDLEKAGSVGPVQKFVTWRLRRDRERGRALLSARSGSPSGQAPTVNEQVQAWESRRPLIQDLARRLLTDDEVLAVTRHCSRYVHEGGVEDLVRPLLAILDRPTKLLLLRDIRSVVAPTDLGRFDSMVMPVELEAFEALKSRAVGPSALRPTRQDTPPKRHLITPVPDSRGGFYLLPVNSSEDEDGEIREKLGVLKVSLGASAPHHKGIPPLQDVPVDAFSLRRGACAPPPQPPPVAPRPPRPNWLLTEPLSREDTQQNQSQTPAQSCSRSRSRSRSRSHSRGQGKSPGRRRSPSPAPIATAATANGRYHRPRKARPLLPRLLDGQVAKVGARQGPLENGRIAEEAVGNVSTGALRTITLSKMKQSLGISISGGIESKVQPMVKIEKIFPGGAAFLCGDLQAGFELVAVDGESLEQVTHQRAVDTIRRAYRNKAREPMELVVRVPGPGLLPLASDLRVVKDQSLAPDCPSALGPVDDARILTQLPPPEARQLQQSLSSALKVPQSIPKLSPILKDPHDPS				binds

Results are given in words; binding and its absence hold for the method and conditions named. Binding calls can cover weak binding; strength is not graded here.
